Source: the supplement of paper PMC12067093, “Discovery and optimisation of a covalent ligand for TRIM25 and its application to targeted protein ubiquitination” (Chemical Science, 2025)
The other results are listed elsewhere or left out.

Chains of the proteins cited; added tags and fusions are not shown. Lines headed by an entry give the natural chain unless they say otherwise; changes in a name come on top.
UniProt Q9H9A7: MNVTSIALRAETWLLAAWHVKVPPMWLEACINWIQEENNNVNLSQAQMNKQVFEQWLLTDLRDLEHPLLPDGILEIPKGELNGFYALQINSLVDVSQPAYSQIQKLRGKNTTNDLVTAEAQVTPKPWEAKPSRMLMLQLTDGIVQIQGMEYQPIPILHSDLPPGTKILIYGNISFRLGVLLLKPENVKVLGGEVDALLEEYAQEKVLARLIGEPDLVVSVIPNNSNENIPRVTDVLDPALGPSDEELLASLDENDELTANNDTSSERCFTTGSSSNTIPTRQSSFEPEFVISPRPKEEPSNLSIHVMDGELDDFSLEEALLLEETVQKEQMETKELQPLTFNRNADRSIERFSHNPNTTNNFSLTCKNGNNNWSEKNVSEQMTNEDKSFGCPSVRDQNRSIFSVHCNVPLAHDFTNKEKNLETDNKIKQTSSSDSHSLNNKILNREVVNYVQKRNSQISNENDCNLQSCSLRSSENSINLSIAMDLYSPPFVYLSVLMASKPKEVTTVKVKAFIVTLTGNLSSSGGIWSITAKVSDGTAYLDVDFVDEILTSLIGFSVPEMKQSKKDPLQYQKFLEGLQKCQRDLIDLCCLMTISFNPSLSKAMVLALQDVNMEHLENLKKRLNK
UniProt Q04206, whole entry, looked up: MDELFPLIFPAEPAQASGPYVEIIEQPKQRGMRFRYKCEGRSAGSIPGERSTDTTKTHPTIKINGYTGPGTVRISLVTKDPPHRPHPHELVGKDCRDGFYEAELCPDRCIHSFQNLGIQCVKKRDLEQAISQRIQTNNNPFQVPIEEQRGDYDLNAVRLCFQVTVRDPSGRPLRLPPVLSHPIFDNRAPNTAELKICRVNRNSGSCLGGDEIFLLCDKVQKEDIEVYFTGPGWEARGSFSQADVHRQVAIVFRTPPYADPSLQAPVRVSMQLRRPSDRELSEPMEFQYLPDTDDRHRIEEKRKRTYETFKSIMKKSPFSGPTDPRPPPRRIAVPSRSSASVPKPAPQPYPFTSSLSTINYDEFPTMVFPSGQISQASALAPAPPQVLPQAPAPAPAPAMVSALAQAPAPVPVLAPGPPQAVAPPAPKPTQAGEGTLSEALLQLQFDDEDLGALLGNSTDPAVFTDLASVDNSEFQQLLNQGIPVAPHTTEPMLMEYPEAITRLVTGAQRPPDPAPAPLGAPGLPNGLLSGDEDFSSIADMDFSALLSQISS
UniProt Q9Y508: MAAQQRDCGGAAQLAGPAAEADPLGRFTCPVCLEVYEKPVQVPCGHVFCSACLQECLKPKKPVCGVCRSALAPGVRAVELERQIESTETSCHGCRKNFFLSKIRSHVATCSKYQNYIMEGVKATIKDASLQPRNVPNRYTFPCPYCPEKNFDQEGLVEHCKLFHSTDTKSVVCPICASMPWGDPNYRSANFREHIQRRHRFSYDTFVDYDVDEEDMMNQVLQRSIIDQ
UniProt P40938, whole entry, looked up: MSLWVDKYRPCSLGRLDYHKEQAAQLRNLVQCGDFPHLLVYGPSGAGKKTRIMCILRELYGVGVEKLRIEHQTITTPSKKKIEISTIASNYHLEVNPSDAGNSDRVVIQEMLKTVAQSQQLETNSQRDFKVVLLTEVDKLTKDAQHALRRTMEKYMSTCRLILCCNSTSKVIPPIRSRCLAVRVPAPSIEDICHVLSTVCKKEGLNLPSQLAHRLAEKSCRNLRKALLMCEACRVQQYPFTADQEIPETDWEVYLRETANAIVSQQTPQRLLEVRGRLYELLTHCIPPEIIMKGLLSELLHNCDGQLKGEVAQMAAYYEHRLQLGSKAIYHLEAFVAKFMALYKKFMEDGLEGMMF
UniProt P07949, whole entry, looked up: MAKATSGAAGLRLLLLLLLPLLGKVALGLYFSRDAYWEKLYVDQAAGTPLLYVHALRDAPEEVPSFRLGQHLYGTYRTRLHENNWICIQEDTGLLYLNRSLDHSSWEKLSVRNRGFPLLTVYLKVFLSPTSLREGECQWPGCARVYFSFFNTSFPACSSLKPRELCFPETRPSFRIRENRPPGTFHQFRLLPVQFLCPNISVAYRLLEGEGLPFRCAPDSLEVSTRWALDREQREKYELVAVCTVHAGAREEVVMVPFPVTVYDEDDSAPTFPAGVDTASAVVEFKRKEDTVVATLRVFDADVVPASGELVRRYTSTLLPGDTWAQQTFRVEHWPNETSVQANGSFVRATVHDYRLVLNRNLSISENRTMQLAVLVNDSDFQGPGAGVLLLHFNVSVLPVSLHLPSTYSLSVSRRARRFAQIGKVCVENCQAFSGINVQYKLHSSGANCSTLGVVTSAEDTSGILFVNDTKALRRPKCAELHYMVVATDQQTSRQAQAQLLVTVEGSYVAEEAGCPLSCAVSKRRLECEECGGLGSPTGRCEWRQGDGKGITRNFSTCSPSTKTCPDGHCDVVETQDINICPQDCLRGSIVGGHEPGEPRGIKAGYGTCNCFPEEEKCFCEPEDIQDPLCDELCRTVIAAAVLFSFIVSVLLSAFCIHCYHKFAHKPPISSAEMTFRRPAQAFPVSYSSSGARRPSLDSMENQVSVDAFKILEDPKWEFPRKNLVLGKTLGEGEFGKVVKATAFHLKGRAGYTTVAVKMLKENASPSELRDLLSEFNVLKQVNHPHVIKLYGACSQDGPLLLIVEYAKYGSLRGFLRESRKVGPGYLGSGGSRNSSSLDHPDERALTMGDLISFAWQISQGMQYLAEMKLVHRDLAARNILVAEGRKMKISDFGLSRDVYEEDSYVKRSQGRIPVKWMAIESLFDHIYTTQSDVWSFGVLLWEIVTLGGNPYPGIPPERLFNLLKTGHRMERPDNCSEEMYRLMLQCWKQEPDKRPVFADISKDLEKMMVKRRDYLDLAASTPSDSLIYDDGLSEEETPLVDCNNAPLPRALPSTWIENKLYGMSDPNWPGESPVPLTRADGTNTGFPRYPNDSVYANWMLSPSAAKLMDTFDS
UniProt P12724: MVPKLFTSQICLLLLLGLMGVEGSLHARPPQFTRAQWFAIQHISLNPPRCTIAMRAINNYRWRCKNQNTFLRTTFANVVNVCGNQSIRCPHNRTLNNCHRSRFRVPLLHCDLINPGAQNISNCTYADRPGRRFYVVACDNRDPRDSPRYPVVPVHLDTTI
UniProt Q9P260: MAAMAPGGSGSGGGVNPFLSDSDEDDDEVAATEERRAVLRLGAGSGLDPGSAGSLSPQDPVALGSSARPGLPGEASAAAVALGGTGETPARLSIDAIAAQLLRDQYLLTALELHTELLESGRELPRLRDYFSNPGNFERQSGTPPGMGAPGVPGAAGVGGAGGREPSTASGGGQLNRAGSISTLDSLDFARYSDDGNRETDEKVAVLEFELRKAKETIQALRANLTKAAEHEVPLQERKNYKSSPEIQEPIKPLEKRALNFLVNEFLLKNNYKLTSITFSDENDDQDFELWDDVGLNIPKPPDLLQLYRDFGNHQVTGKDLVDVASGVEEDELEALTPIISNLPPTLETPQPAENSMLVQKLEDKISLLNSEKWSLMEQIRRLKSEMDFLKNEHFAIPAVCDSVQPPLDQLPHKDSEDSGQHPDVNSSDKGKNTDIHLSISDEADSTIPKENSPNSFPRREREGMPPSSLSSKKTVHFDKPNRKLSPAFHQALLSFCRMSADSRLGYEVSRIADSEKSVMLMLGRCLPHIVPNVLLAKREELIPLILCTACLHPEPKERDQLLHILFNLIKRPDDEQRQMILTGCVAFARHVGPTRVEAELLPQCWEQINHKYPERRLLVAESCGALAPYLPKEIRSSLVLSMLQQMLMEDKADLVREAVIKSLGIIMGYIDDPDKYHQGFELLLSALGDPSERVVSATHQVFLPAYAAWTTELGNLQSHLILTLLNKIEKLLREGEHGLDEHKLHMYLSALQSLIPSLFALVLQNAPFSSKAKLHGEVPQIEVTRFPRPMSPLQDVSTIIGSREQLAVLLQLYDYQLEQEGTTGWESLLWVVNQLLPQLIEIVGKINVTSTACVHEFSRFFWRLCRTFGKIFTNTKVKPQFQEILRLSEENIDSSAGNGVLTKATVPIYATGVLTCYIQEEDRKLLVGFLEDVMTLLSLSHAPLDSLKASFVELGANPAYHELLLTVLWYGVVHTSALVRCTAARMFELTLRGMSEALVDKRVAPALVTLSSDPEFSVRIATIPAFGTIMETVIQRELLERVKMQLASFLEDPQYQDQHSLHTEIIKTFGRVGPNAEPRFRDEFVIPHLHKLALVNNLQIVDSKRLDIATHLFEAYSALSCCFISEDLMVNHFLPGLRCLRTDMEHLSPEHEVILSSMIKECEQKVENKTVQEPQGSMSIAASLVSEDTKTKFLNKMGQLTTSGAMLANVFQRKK
UniProt Q8WVD3: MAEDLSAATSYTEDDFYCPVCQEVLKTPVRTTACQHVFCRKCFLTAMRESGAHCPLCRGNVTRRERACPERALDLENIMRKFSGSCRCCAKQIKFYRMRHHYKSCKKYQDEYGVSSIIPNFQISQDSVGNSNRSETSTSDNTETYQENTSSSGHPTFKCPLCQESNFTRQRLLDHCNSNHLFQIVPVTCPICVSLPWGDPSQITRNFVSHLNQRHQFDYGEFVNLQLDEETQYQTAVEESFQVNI
UniProt Q13129: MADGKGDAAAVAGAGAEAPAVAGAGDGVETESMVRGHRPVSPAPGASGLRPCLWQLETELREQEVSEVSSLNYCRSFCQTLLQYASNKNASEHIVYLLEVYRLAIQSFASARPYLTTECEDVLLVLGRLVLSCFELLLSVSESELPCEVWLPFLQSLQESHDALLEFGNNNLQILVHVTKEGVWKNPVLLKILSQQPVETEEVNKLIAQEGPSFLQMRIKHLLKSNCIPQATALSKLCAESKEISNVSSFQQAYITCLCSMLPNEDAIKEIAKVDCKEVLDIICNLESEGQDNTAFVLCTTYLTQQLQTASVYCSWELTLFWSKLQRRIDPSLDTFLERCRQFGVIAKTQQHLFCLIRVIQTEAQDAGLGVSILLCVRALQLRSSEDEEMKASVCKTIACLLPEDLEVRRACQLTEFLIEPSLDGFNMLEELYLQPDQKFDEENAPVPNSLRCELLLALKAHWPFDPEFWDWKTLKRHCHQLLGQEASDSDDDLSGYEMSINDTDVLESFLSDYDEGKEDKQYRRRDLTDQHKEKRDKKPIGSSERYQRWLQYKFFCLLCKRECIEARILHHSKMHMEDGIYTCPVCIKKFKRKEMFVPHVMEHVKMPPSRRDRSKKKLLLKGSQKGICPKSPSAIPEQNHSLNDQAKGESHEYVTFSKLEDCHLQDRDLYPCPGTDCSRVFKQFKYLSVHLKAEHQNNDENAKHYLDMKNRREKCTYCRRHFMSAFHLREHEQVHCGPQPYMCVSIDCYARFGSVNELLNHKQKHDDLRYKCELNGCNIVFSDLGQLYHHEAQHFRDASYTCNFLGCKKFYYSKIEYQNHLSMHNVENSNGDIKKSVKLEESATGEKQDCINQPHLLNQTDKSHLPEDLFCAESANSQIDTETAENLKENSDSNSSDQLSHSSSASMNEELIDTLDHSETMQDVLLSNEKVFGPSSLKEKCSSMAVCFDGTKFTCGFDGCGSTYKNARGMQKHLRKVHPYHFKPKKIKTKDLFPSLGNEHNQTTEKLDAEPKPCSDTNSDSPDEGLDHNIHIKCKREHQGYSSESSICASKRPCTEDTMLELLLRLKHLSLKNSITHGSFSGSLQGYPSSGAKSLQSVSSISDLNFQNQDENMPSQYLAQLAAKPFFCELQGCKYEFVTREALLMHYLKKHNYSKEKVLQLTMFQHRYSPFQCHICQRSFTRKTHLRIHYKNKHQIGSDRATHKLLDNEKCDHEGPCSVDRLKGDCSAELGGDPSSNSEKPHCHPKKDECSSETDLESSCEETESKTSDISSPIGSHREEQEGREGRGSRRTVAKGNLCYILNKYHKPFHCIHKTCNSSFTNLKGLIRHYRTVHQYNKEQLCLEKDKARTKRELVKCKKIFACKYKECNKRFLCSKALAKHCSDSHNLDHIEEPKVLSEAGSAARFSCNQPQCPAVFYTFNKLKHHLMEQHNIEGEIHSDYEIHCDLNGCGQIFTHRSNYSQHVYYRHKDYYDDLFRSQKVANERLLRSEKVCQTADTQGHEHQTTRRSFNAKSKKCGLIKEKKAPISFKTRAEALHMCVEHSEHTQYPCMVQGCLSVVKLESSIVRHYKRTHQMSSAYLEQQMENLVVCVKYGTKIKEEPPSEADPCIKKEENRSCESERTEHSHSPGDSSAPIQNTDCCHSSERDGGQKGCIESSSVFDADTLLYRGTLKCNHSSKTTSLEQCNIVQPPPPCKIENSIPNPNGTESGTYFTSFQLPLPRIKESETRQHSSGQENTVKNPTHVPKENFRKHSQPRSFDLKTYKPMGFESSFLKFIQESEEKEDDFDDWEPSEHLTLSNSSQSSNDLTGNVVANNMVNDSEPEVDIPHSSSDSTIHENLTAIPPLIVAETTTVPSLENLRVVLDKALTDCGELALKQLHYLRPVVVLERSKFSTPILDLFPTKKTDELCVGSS
UniProt P84095: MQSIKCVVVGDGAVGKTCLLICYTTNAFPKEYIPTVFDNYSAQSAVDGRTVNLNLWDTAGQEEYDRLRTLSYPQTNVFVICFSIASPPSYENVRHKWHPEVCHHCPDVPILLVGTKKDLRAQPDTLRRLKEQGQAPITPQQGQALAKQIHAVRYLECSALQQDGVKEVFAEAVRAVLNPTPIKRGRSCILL

Compound: Cc1cc(ccc1-c1ccccc1)C(=O)N1CCCN(CC1)C(=O)CCl [compound 10]
Assay: probe-labelled cysteine peptide fold change vs DMSO (competition) (log2 fold change); higher = less target engagement (more negative = stronger competition)
Settings: THP-1, incubation time: 4 h
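Also: competitive profiling in live THP-1 cells: cysteine peptides tagged with an iodoacetamide desthiobiotin (IA-DTB) probe, intensity after compound treatment relative to DMSO-treated cells.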

| Target | probe-labelled cysteine peptide fold change (10 µM) | probe-labelled cysteine peptide fold change (50 µM) |
| --- | --- | --- |
| RNASEH2A_O75792_29_EPCVLGVDEAGR (UniProt O75792) | -0.0446 | 0.0343 |
| RMI1_Q9H9A7_268_CFTTGSSSNTIPTR (UniProt Q9H9A7) | -0.352 | -0.438 |
| RELA_Q04206_160_LCFQVTVR (UniProt Q04206) | 0.0978 | -0.176 |
| RHOT2_Q8IXI1_389_SCLGHLGYLGYPTLCEQDQAHAITVTR (UniProt Q8IXI1) | 0.0779 | 0.238 |
| RNASEL_Q05823_576_DCLSDLLGHPFFWTWESR (UniProt Q05823) | 0.337 | 0.0397 |
| RFTN1_Q14699_211_GDHASLENEKPGTGDVCSAPAGR (UniProt Q14699) | 0.161 | -0.495 |
| RIPK1_Q13546_34_VSLCFHR (UniProt Q13546) | 0.0991 | -0.0753 |
| RNF114_Q9Y508_160_NFDQEGLVEHCK (UniProt Q9Y508) | 0.0873 | 0.126 |
| RFC3_P40938_32_NLVQCGDFPHLLVYGPSGAGKK (UniProt P40938) | -0.11 | -0.186 |
| RGS14_O43566_183_ECLLAEAEGRPLREPGSSR (UniProt O43566) | -0.067 | 0.0115 |
| RET_P07949_585_TCPDGHCDVVETQDINICPQDCLR (UniProt P07949) | -0.18 | 0.0812 |
| RNASE3_P12724_138_FYVVACDNRDPR (UniProt P12724) | -0.00396 | -0.0836 |
| RFX2_P48378_436_LISLCQCDPILR (UniProt P48378) | -0.124 | -0.0951 |
| RELCH_Q9P260_497_LSPAFHQALLSFCR (UniProt Q9P260) | -0.113 | -0.00728 |
| RNF13_O43567_266_CVDPWLTK (UniProt O43567) | -0.284 | -0.314 |
| REXO2_Q9Y3B8_137_QQTPPGLCPLAGNSVHEDK (UniProt Q9Y3B8) | 0.2 | 0.262 |
| RNF139_Q8WU17_585_WLYIQDTCPMCHQK (UniProt Q8WU17) | -0.0976 | -0.33 |

| Target | probe-labelled cysteine peptide fold change (10 µM) | probe-labelled cysteine peptide fold change (50 µM) |
| --- | --- | --- |
| RFC2_P35250_88_TTSILCLAR (UniProt P35250) | -0.0505 | -0.0625 |
| RNF138_Q8WVD3_34_TTACQHVFCR (UniProt Q8WVD3) | 0.05 | -0.131 |
| RENBP_P51606_135_TIFSECFYTMAMNELWR (UniProt P51606) | 0.185 | -0.158 |
| RLF_Q13129_851_QDCINQPHLLNQTDK (UniProt Q13129) | -0.353 | -0.26 |
| RING1_Q06587_48+51_SLHSELMCPICLDMLK (UniProt Q06587) | -0.0753 | -0.585 |
| REEP5_Q00765_18_NCMTDLLAK (UniProt Q00765) | -0.872 | -1.97 |
| RNF114_Q9Y508_8_DCGGAAQLAGPAAEADPLGR (UniProt Q9Y508) | -0.000646 | 0.024 |
| RELA_Q04206_105_DCRDGFYEAELCPDR (UniProt Q04206) | -0.0366 | -0.399 |
| RECQL_P46063_471_RVLMAQHFDEVWNSEACNK (UniProt P46063) | 0.0107 | -0.0354 |
| RICTOR_Q6R327_893_TGCHLLEVQNIITELCR (UniProt Q6R327) | 0.0187 | -0.187 |
| RLF_Q13129_453_CELLLALK (UniProt Q13129) | -0.0396 | -0.333 |
| RMI1_Q9H9A7_406_SIFSVHCNVPLAHDFTNK (UniProt Q9H9A7) | -0.0891 | -0.0242 |
| RHOG_P84095_18_TCLLICYTTNAFPK (UniProt P84095) | -0.108 | 0.0979 |
| RFC5_P40937_238_VTEETVYTCTGHPLK (UniProt P40937) | 0.127 | -0.0928 |
| RNF126_Q9BV68_13+16_YFCHCCSVEIVPR (UniProt Q9BV68) | -0.268 | -1.16 |
| RELCH_Q9P260_548_REELIPLILCTACLHPEPK (UniProt Q9P260) | 0.223 | 0.121 |
| RFT1_Q96AA3_448_ITQSLCFIHR (UniProt Q96AA3) | -0.704 | -0.836 |
